These are yes or no findings as the source states them, for the method shown.

Protein sequences, listed by entry. Tags and fused reporters are not part of them. Lines headed by an entry give the natural chain unless they say otherwise; changes in a name come on top. Residues count along the entry.
UniProt P18613: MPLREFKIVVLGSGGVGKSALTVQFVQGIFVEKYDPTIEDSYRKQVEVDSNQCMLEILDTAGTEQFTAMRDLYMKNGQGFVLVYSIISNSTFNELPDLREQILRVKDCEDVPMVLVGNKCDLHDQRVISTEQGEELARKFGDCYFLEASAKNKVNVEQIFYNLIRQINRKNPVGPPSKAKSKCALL
UniProt Q86C65, residues 1820-2380: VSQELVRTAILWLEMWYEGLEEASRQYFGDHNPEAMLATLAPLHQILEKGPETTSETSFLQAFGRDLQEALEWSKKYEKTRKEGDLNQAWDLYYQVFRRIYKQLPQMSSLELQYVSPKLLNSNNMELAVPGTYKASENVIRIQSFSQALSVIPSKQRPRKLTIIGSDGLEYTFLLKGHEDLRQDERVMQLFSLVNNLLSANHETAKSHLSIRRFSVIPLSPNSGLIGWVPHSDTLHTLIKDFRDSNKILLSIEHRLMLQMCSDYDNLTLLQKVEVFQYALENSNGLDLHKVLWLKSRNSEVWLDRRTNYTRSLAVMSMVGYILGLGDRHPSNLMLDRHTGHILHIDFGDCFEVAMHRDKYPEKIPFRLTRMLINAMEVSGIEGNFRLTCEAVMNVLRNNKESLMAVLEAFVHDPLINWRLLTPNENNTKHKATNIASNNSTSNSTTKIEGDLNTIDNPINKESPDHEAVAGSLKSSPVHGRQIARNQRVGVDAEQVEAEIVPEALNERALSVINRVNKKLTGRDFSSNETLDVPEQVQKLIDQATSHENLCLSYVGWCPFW

This test deals with constitutively active Rap1 mutant (tested with FRB/Kin^TOR) (Dictyostelium) (UniProt P18613). Put plainly: pull-down; GFP-FRB/Kin^TOR with active GST-fused GTPase (GppNHp-loaded or constitutively active mutant), 25 ug of each, 50 mM Tris-Cl, 150 mM NaCl, 5 mM MgCl2, 1 mM beta-mercaptoethanol, pH 7.5; GSH resin; washes with 500 mM NaCl; GFP and GST immunoblotting; both purified. (Immunoblotting shows a protein as a band on a membrane.)

On to “GFP-fused TOR catalytic domain (FRB/Kin^TOR, aa 1820-2380) (from UniProt Q86C65 1820-2380) (domain or fragment)”, for which the binding result was “no binding”.

The record behind these values is article PMC4865869.
